According to patent US20240383953A1, “NOVEL NAN[…] NANOG PRION-LIKE REPEATS” (BAYLOR COLLEGE OF MEDICINE, priority 2021, published 2024):
Results are given in words; binding and its absence hold for the method and conditions named. Some results given as binding are weak or reduced against the parent protein; the word gives no strength.

The chains behind the UniProt entries cited, without tags or fusion partners.
UniProt Q9H9S0: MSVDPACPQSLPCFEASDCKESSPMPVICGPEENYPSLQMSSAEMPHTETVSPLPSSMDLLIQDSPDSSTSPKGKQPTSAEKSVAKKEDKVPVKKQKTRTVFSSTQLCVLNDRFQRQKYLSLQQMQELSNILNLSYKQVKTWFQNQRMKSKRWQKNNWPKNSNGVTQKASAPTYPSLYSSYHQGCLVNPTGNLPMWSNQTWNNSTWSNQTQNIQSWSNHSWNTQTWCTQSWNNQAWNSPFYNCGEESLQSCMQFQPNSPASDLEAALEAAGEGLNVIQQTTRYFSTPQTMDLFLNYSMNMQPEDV

Tests used:
[1] = target: GB1-fused NANOG WT (human) (UniProt Q9H9S0); assay: UV-detected SEC
[2] = target: GB1-fused NANOG WT (human) (UniProt Q9H9S0); assay: size exclusion chromatography
[3] = target: GB1-fused NANOG WT (human) (UniProt Q9H9S0); assay: size exclusion chromatography after co-expression in E. coli

binding [1]: binds | binding [2]: binds | binding [3]: binds
B1: Skp chaperone (protein, UniProt P0AEU7 21-161, looked up)
chain: ADKIAIVNMGSLFQQVAQKTGVSNTLENEFKGRASELQRMETDLQAKMKKLQSMKAGSDRTKLEKDVMAQRQTFAQKAQAFEQDRARRSNEERGKLVTRIQTAVKSVANSQDIDLVVDANAVAYNSSDVKDITADVLKQVK
